Here are results for three compounds from patent publication EP0056458B1, “Nitrosourea derivatives, a process for preparing same and therapeutic compositions” (Tanabe Seiyaku Co., Ltd., priority 1981, dated 1982).

Molecules are shown by their SMILES.

This data set concerns Ehrlich ascites carcinoma. Briefly: Preventive effect against the growth of Ehrlich ascites tumor (method A). Particulars: times greater than that of GANU. Format: in vivo, mice. On the procedure: (A) Preventive effect against the growth of Ehrlich ascites tumor:
10^6 tumor cells of Ehrlich ascites carcinoma were inoculated intraperitoneally into a group of five female mice (ICR mice, body weight: 19-23 g). A test compound was dissolved in a physiological saline solution. (In the case where CCNU was employed as the test compound, said compound was suspended in a physiological saline solution containing 0.1% NIKKOL HCO-60 (trademark; a surface active agent manufactured by Nikko Chemicals Co. Ltd.)) and administered intraperitoneally to the mice. The administration of the test compound was begun 24 hours after the inoculation of the tumor cells and performed once a day for 5 days. The volume of ascites in the treated mice were measured after 7 days of the experiment.
As for `CO[C@H]1O[C@H](CO)[C@@H](O)[C@H](N(CC(C)C)C(=O)N(CCCl)N=O)[C@H]1O` [Compound 2, 1 - (2 - chloroethyl) - 1 - nitroso - 3 - isobutyl - 3 - (methyl 3 - deoxy - a - D - glucopyranosid - 3 - yl)urea], the “therapeutic indexes (M. T. D./M. E. D.) relative to GANU” value was 4 times.

For `C=CCN(C(=O)N(CCCl)N=O)[C@@H]1[C@@H](O)[C@@H](OC)O[C@H](CO)[C@H]1O` [Compound 4, 1 - (2 - chloroethyl) -1 - nitroso - 3 - allyl - 3 - (methyl 3 - deoxy - α - D - glucopyranosid - 3 - yl)urea], the “therapeutic indexes (M. T. D./M. E. D.) relative to GANU” value is reported as 4 times. For the compound `COCCN(C(=O)N(CCCl)N=O)[C@@H]1[C@@H](O)[C@@H](OC)O[C@H](CO)[C@H]1O` [Compound 6, 1 - (2 - chloroethyl) - 1 - nitroso - 3 - (2 - methoxyethyl) - 3 - (methyl 3 - deoxy - a - D - glucopyranosid - 3 - yl)urea], the “therapeutic indexes (M. T. D./M. E. D.) relative to GANU” value stood at 4 times.
